Data published in paper PMC4897654.
Results are given in words; binding and its absence hold for the method and conditions named. Some binding calls cover weakened binding; strength is not graded here.

Protein sequences, listed by entry. Tags and fused reporters are not part of them. Lines headed by an entry give the natural chain unless they say otherwise; changes in a name come on top.
UniProt Q9BQ15: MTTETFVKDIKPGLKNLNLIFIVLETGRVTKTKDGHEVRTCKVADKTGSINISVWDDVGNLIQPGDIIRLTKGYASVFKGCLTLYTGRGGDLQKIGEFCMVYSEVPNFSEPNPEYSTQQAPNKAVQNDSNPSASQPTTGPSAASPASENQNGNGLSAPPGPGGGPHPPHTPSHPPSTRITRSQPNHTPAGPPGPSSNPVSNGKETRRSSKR
UniProt O15527: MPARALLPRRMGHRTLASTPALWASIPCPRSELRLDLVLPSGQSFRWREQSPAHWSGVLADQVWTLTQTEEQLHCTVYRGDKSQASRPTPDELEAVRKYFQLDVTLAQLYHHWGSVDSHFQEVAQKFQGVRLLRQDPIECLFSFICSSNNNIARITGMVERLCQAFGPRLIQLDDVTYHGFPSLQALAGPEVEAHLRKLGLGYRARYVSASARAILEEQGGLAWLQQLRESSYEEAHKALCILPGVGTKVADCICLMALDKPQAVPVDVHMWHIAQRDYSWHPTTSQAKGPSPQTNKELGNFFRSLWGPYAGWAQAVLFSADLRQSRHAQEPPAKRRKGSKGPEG

Biological target: recombinant C41S hSSB1 (human) (UniProt Q9BQ15)
Assay: pull-down; mutated hSSB1 immobilized on cyanogen bromide-activated Sepharose 4B; purified recombinant proteins; both purified

Substance: GST-OGG1 (human 8-oxoguanine glycosylase 1) (from UniProt O15527 1-345) (enzyme)
- binding: binds
